Assay results: the supplement of paper PMC12067093, “Discovery and optimisation of a covalent ligand for TRIM25 and its application to targeted protein ubiquitination” (Chemical Science, 2025)
This is one part of the list.

Sequences of proteins named here, by UniProt entry; tags and fusion partners are left off. A change or cut given only in a name is not applied to a line headed by its entry.
UniProt O76094: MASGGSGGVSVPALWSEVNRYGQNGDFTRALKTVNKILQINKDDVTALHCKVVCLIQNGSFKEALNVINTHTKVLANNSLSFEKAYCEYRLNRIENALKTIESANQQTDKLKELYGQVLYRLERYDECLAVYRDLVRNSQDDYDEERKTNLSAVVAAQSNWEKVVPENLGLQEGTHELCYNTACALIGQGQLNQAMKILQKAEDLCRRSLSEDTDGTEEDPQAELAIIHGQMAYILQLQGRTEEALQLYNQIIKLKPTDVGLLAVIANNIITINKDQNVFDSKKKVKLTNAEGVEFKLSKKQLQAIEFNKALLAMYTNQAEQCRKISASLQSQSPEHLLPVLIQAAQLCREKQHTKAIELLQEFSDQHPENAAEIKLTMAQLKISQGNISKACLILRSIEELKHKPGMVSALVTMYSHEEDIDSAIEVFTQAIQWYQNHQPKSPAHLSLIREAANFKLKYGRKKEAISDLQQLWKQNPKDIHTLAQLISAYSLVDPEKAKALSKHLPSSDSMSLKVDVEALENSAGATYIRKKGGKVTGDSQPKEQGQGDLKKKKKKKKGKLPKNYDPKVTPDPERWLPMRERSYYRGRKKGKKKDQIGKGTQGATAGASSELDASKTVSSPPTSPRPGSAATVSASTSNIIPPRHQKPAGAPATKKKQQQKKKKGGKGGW
UniProt P49458: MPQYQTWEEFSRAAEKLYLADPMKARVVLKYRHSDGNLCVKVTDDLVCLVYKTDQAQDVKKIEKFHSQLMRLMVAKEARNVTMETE
UniProt Q8TB22: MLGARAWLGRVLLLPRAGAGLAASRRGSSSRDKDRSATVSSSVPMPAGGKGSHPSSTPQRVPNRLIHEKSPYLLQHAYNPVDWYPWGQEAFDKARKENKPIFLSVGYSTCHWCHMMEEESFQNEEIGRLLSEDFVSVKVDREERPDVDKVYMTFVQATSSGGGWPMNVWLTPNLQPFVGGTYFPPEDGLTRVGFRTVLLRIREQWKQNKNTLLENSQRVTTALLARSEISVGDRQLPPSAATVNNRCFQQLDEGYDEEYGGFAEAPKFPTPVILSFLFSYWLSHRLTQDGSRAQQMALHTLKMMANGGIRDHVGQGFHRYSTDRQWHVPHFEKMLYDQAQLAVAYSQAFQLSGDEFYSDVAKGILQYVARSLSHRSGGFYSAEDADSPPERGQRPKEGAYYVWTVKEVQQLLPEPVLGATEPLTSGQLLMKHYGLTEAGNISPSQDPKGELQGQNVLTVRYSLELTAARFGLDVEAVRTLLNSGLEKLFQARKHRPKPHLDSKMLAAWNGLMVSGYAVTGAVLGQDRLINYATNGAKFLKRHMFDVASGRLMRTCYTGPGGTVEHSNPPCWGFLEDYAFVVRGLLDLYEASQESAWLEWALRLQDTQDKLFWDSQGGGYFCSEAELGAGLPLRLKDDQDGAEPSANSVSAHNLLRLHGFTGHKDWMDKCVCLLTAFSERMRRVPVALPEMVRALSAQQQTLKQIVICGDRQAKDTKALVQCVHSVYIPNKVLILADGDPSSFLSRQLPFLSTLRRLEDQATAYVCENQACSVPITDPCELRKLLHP
UniProt Q00796: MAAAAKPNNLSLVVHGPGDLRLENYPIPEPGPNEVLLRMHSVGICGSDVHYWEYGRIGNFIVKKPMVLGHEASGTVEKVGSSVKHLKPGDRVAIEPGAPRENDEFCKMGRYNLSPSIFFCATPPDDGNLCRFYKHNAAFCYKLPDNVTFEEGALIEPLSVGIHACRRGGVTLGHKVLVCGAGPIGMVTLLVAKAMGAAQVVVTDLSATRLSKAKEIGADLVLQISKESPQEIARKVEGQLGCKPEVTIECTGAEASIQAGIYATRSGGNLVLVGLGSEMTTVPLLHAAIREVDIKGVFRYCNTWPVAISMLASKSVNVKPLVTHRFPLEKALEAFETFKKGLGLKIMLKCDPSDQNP
UniProt Q9Y5X1: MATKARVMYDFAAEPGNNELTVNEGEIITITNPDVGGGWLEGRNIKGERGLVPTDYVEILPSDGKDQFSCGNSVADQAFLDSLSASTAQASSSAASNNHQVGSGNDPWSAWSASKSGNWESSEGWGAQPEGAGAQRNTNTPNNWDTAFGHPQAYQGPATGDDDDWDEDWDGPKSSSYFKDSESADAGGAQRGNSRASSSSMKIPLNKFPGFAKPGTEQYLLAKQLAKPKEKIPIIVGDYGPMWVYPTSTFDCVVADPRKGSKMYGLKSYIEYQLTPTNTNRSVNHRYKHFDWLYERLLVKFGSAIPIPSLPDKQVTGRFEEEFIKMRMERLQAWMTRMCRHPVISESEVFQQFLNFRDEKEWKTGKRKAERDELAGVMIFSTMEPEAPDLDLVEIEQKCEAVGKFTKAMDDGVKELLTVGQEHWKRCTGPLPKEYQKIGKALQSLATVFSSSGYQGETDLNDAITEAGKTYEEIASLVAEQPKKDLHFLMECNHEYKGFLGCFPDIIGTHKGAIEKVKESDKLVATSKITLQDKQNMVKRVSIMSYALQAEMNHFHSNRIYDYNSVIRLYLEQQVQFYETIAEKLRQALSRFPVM
UniProt O75391: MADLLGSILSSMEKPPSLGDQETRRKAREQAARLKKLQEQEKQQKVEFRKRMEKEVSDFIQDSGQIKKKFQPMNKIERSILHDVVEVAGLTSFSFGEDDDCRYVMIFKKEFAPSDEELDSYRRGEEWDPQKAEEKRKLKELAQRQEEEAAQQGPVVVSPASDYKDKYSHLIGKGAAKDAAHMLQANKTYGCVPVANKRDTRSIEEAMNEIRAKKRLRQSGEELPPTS
UniProt Q8N5C6: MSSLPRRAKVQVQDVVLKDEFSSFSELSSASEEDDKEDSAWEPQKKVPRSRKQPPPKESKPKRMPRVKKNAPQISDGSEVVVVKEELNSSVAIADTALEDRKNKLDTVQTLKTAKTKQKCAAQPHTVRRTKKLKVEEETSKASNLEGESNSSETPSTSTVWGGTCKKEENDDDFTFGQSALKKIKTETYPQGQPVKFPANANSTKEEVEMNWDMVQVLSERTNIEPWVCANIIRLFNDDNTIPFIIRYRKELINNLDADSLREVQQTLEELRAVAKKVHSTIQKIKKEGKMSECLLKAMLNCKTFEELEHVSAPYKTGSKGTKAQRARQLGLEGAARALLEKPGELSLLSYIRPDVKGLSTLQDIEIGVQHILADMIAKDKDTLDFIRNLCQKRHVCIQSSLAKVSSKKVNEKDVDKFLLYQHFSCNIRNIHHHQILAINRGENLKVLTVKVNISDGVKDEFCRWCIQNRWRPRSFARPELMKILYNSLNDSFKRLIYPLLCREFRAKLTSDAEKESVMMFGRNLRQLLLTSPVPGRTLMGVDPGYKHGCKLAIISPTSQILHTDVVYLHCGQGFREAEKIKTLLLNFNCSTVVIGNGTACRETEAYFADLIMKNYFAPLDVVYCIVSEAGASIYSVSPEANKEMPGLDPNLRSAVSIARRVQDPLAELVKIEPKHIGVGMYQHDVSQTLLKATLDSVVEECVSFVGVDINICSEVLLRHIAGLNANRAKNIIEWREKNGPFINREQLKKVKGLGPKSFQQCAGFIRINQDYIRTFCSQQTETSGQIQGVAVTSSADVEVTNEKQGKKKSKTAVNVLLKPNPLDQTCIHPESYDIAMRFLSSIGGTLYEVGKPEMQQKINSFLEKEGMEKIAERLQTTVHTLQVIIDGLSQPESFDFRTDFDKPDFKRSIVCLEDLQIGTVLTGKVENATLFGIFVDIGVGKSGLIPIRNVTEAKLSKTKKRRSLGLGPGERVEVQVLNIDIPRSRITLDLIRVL
UniProt Q9Y5W7: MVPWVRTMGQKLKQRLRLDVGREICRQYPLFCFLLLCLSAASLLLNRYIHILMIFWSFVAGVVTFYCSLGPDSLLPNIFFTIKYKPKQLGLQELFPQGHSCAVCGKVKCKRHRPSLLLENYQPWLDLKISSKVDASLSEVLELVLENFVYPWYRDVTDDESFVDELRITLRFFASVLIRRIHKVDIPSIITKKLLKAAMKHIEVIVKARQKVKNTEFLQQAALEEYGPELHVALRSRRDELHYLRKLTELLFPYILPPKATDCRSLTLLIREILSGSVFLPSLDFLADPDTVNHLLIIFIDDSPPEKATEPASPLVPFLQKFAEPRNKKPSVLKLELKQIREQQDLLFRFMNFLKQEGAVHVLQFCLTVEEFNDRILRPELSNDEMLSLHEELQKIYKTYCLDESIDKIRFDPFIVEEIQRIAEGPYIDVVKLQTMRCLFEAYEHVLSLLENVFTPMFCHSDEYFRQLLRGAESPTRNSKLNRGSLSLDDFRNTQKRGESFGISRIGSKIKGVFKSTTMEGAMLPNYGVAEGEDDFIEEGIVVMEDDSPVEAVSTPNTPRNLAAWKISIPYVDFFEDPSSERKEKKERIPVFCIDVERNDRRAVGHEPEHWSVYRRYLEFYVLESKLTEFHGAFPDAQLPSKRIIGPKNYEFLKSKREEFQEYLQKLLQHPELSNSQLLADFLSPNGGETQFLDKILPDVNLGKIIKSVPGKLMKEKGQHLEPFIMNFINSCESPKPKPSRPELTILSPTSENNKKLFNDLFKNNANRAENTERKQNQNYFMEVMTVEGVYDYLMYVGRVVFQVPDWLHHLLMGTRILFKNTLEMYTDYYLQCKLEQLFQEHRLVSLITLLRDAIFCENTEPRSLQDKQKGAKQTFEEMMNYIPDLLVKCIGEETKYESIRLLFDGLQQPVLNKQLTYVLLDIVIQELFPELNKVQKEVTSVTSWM
UniProt Q9Y6N5: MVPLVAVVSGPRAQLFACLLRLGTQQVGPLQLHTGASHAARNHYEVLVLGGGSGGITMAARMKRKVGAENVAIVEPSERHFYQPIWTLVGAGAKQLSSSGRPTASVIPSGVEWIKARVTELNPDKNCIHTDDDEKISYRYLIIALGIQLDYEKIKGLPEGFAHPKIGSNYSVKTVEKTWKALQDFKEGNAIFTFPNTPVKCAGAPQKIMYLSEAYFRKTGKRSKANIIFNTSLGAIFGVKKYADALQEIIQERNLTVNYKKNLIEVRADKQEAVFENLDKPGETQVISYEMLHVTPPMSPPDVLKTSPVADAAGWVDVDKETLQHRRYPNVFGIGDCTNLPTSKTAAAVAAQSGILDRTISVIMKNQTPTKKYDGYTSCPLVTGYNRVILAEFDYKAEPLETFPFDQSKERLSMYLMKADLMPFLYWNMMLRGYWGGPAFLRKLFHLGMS
UniProt Q5W111: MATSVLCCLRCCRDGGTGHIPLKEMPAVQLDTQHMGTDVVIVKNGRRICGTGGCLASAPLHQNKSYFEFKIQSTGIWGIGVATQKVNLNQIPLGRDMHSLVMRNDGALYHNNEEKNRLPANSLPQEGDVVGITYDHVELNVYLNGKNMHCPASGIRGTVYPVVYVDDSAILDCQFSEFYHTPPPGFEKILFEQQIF
UniProt O60493, whole entry, looked up: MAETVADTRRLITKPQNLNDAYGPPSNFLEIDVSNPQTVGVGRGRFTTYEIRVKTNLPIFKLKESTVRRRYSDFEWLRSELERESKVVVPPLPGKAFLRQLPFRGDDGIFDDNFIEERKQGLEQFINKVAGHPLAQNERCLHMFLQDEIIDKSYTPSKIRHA
UniProt P09234, whole entry, looked up: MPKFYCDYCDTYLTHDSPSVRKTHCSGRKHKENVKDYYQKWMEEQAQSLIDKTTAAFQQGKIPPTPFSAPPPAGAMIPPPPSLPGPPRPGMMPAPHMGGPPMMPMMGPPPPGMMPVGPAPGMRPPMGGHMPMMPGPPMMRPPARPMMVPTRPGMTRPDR
UniProt P62318, whole entry, looked up: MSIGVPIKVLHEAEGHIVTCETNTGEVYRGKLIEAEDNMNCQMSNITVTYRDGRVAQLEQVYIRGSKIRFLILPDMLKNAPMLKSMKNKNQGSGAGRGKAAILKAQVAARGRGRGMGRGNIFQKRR
UniProt P08621, whole entry: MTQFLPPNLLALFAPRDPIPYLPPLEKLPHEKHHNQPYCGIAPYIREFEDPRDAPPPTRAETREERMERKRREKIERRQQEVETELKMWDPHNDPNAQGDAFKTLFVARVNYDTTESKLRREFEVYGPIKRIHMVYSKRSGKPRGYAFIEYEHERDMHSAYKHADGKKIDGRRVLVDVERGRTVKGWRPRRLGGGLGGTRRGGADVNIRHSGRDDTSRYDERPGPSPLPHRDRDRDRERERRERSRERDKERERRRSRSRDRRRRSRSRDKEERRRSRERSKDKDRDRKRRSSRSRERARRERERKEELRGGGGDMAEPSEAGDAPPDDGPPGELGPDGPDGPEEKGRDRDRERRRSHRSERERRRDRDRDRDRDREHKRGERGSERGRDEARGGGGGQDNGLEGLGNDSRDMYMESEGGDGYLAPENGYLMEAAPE
UniProt Q7Z614: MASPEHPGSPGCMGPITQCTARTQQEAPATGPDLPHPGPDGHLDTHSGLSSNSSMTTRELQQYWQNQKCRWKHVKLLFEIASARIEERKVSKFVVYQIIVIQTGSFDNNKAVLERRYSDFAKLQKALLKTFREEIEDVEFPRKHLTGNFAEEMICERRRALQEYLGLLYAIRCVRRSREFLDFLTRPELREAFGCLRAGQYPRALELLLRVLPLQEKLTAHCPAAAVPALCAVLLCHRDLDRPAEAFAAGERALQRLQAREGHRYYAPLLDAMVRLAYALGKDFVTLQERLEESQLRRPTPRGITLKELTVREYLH

Compound: CC1Cc2ccccc2N1C(=O)C1CCCN(C1)C(=O)CCl (mixture of isomers) [TRIM25 ligand 11 (diastereomer mixture)]
Assay: probe-labelled cysteine peptide fold change vs DMSO (competition) (log2 fold change); higher = less target engagement (more negative = stronger competition)
Conditions: THP-1, incubation time: 4 h
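Also: competitive chemoproteomic profiling in live THP-1 cells with an iodoacetamide desthiobiotin (IA-DTB) probe, comparing probe-labelled peptide intensities in compound-treated cells against DMSO-treated controls.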

Target	probe-labelled cysteine peptide fold change (10 µM)	probe-labelled cysteine peptide fold change (50 µM)
SRP72_O76094_54_VVCLIQNGSFK (UniProt O76094)	0.0566	0.0489
SRP9_P49458_48_VTDDLVCLVYK (UniProt P49458)	-0.196	-0.113
SPATA20_Q8TB22_721_ALVQCVHSVYIPNK (UniProt Q8TB22)	-0.131	0.047
SORD_Q00796_45_MHSVGICGSDVHYWEYGR (UniProt Q00796)	-0.103	-0.493
SNX18_Q96RF0-2_570_CNTISFATLAEIHHFHQIR (UniProt Q96RF0)	0.155	0.111
SPRED2_Q7Z698_73_LVVLECYVR (UniProt Q7Z698)	-0.163	0.187
SNX9_Q9Y5X1_427_CTGPLPK (UniProt Q9Y5X1)	-0.0883	-0.0548
SPAG7_O75391_191_TYGCVPVANKR (UniProt O75391)	-0.262	-0.196
SNRPB_P14678_43_HMNLILCDCDEFRK (UniProt P14678)	-0.123	0.0763
SRBD1_Q8N5C6_827_TAVNVLLKPNPLDQTCIHPESYDIAMR (UniProt Q8N5C6)	-0.21	0.000566
SPATA5_Q8NB90_163_DMEINEEELTGCILR (UniProt Q8NB90)	0.00135	-0.151
SOS1_Q07889_838_CIVETENLEER (UniProt Q07889)	0.179	0.163
SNX14_Q9Y5W7_593_ERIPVFCIDVER (UniProt Q9Y5W7)	-0.0227	0.00739
SQOR_Q9Y6N5_127_NCIHTDDDEK (UniProt Q9Y6N5)	-0.0247	-0.0231
SPTAN1_Q13813_1622_GACAGSEDAVK (UniProt Q13813)	-0.135	-0.00186
SPAG9_O60271_761_NQEELSSLVWICTSTHSATK (UniProt O60271)	0.219	0.177
SNX5_Q9Y5X3_346+347_LAEAHQQECCQK (UniProt Q9Y5X3)	0.072	0.0319
SPTAN1_Q13813_956_EQAQSCR (UniProt Q13813)	-0.11	-0.0168
SPRYD7_Q5W111_150_NMHCPASGIR (UniProt Q5W111)	0.0439	-0.0213
SRP72_O76094_50_DDVTALHCK (UniProt O76094)	0.148	0.207

Target	probe-labelled cysteine peptide fold change (10 µM)	probe-labelled cysteine peptide fold change (50 µM)
SNX3_O60493_140_CLHMFLQDEIIDKSYTPSKIRHA (UniProt O60493)	-0.0562	-0.0257
SNRPC_P09234_6_FYCDYCDTYLTHDSPSVR (UniProt P09234)	-0.122	-0.874
SP100_P23497_373_EGQEATCSRPQIVPEPMDFRK (UniProt P23497)	-0.171	-0.316
SNRPD3_P62318_41_LIEAEDNMNCQMSNITVTYRDGR (UniProt P62318)	-0.143	-0.109
SRP9_P49458_48_VTDDLVCLVYKTDQAQDVK (UniProt P49458)	-0.433	0.0457
SRI_P30626_163_ITFDDYIACCVK (UniProt P30626)	-0.183	-0.128
SPTBN1_Q01082_1389_AELFTQSCADLDK (UniProt Q01082)	0.0044	-0.0744
SNRNP70_P08621_39_HHNQPYCGIAPYIR (UniProt P08621)	-0.124	-0.228
SORD_Q00796_120_YNLSPSIFFCATPPDDGNLCR (UniProt Q00796)	0.0586	0.497
SNX20_Q7Z614_236_LTAHCPAAAVPALCAVLLCHR (UniProt Q7Z614)	-0.0692	0.06
SNX9_Q9Y5X1_492_DLHFLMECNHEYK (UniProt Q9Y5X1)	-0.0515	-0.0586
SPTLC2_O15270_511_FCLSAAHTK (UniProt O15270)	-0.0923	-0.0466
SPOUT1_Q5T280_151_ILQYLECPQYLR (UniProt Q5T280)	-0.299	-0.175
SPC25_Q9HBM1_27_STDTSCQMAGLR (UniProt Q9HBM1)	0.0363	-0.08
SRCAP_Q6ZRS2_2372_EEVFRLPQEEEEGPGAGDESSCGTGGGTHR (UniProt Q6ZRS2)	-0.0985	-0.303
SNX27_Q96L92_30_NGGGGGGGGSGLHCAGNGGGGGGGPR (UniProt Q96L92)	-0.0382	-0.125
SPAG7_O75391_101_SILHDVVEVAGLTSFSFGEDDDCR (UniProt O75391)	-0.0927	-0.274
SRBD1_Q8N5C6_294_MSECLLK (UniProt Q8N5C6)	-0.163	-0.438
SPATA20_Q8TB22_671_CVCLLTAFSER (UniProt Q8TB22)	-0.0272	0.0674

A portion of the results above, for reference:
Target	probe-labelled cysteine peptide fold change (10 µM)	probe-labelled cysteine peptide fold change (50 µM)
SNRNP70_P08621_39_HHNQPYCGIAPYIR (UniProt P08621)	-0.124	-0.228
SORD_Q00796_120_YNLSPSIFFCATPPDDGNLCR (UniProt Q00796)	0.0586	0.497
SNX20_Q7Z614_236_LTAHCPAAAVPALCAVLLCHR (UniProt Q7Z614)	-0.0692	0.06
